These results are taken from publication PMC12786276.

Protein sequences, listed by entry. Tags and fused reporters are not part of them. Lines headed by an entry give the natural chain unless they say otherwise; changes in a name come on top. Chains listed by the source or under a name are the forms on record and can include a tag or linker. Residues count along the entry.
UniProt P06756, residues 31-1048: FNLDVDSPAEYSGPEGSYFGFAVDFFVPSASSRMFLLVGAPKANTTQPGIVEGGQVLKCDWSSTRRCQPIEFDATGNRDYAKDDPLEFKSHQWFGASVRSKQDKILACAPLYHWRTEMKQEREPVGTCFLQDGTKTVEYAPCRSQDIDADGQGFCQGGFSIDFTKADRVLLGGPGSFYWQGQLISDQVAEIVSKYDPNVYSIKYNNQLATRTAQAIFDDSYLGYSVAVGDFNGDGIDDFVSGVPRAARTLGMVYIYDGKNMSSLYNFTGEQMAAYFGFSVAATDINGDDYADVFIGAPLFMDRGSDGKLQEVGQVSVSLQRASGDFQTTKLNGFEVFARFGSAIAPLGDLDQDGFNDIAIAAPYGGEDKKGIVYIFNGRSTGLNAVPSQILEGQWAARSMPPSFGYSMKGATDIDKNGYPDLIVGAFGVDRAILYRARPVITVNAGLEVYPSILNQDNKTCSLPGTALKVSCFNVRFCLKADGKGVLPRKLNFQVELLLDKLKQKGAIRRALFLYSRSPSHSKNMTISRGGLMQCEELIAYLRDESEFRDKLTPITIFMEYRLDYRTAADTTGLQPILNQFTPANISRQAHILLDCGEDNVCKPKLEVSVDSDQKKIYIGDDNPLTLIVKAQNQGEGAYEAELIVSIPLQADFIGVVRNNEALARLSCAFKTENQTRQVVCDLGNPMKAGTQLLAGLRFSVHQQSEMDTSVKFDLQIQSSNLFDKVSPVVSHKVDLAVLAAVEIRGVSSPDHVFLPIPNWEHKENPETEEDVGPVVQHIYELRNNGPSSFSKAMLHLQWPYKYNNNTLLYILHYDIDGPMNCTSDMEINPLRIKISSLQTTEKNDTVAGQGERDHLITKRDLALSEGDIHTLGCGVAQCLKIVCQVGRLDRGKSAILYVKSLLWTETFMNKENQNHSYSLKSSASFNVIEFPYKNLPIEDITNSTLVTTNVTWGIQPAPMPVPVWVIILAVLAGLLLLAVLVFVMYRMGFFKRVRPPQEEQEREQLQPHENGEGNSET
UniProt P05106, residues 27-788: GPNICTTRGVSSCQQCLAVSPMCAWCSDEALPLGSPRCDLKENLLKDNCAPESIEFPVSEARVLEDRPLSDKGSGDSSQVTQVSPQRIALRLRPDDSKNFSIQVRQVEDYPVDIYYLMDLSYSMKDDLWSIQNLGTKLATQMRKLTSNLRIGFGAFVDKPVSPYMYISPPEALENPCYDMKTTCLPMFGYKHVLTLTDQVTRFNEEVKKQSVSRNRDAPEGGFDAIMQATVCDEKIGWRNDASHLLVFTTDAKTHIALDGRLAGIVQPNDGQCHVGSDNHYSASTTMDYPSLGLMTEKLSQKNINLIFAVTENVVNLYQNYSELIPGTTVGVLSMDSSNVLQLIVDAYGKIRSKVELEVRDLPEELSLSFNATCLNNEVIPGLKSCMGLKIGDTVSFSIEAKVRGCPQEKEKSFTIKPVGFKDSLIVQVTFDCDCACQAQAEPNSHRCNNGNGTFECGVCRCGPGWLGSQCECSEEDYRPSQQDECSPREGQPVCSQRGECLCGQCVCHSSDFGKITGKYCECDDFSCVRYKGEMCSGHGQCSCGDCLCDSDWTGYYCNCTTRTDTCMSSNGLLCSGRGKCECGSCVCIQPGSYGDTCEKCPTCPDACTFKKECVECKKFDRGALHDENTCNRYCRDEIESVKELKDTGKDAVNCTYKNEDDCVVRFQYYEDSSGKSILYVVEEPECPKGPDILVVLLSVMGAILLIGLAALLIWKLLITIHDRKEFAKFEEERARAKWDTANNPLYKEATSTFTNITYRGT
HA-tagged CD47 (pcDNA3.1–hCD47–HA) (Q08722, residues 19-323): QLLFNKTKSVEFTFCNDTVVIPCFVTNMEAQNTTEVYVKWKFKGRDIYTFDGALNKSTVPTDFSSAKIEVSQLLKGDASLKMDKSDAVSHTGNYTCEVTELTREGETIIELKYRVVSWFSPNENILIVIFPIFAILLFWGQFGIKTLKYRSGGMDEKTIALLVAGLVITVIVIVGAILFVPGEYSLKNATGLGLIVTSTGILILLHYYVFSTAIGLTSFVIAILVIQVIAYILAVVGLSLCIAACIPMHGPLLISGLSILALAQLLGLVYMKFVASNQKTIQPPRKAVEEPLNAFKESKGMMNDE
HA–CD47Δ80–85 (Q08722, form named): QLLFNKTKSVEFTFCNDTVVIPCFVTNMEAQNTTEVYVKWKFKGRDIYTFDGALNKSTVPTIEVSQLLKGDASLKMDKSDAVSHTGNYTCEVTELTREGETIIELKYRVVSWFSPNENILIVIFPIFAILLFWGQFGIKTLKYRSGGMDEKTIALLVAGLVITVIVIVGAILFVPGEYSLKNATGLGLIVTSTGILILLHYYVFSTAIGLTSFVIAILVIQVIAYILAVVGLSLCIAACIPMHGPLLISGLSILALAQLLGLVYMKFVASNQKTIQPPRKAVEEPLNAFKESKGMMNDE
HA–CD47Δ62–67 (Q08722, form named): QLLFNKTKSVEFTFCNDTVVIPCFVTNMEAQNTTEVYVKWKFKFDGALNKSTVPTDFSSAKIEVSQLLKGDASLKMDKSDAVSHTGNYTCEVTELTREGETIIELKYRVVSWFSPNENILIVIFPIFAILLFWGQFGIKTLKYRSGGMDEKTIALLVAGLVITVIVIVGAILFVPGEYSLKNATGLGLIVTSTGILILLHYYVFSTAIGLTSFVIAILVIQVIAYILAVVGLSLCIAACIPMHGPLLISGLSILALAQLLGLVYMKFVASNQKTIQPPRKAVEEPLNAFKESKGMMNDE
HA–CD47Δ26–32 (Q08722, form named): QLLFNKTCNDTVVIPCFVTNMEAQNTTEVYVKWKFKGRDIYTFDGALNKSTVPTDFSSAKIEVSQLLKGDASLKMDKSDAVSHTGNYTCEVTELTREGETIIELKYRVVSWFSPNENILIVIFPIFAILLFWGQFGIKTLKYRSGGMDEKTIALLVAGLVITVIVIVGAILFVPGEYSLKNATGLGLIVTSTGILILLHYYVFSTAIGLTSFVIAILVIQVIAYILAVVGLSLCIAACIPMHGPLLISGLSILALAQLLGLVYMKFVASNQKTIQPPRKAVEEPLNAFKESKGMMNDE
HA–CD47Δ44–50 (Q08722, form named): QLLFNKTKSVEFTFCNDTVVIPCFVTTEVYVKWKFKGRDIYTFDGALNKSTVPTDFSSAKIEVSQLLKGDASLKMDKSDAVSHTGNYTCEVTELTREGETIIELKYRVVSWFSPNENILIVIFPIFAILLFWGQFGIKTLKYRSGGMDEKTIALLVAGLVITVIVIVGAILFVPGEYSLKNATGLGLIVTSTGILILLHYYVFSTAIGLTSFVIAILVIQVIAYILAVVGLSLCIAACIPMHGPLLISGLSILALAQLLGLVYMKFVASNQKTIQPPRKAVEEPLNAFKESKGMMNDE
HA–CD47Δ69–73 (Q08722, form named): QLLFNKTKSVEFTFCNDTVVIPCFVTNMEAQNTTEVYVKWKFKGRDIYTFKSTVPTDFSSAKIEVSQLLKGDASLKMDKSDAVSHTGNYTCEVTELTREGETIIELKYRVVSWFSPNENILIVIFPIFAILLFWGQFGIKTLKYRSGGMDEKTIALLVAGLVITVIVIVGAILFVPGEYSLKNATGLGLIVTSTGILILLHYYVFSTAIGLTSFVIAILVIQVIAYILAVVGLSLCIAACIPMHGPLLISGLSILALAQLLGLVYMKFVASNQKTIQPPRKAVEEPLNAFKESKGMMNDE

Experiment [1] concerns the target Flag-tagged integrin αv subunit (pcDNA3.1–hITGAV–Flag) (human) (UniProt P06756). Nature of the experiment: co-IP; HEK293 cells cotransfected with HA–CD47 (or one of six loop deletions) and Flag–ITGAV or Myc–ITGB3; immunoprecipitation with Flag- or Myc-beads, overnight at 4 °C; blot for HA.
In experiment [2] the target is Myc-tagged integrin β3 subunit (pcDNA3.1–hITGB3–Myc) (human) (UniProt P05106). The experiment is described as above.
In experiment [3] the target is HA-tagged CD47 (pcDNA3.1–hCD47–HA) (human) (UniProt Q08722). Nature of the experiment: co-IP; HEK293 cells cotransfected with Flag-αv, Myc-β3 and HA-CD47; immunoprecipitation by HA; blots for αv and β3.

No constants are given. Whether binding was seen depends on the method and setting. In cells and extracts the contact can be indirect. Some entries that bind do so weakly or less than the wild type.

On to “HA–CD47Δ80–85 (from UniProt Q08722 19-323)”, for which the binding entry in experiment [1] and in experiment [2] was “binds” in each case.

Turning to “Myc-tagged integrin β3 subunit (pcDNA3.1–hITGB3–Myc) (from UniProt P05106 27-788)”, the binding result in experiment [3] is on record as “binds”.

Take “HA–CD47Δ62–67 (from UniProt Q08722 19-323)”: the binding result in experiment [1] and in experiment [2] was “binds” in each case.

Consider “HA-tagged CD47 (pcDNA3.1–hCD47–HA) (from UniProt Q08722 19-323)”, for which the binding result in experiment [1] and in experiment [2] was “binds” in each case.

“HA–CD47Δ26–32 (from UniProt Q08722 19-323)”: the binding result in experiment [1] and in experiment [2] was “binds” in each case.

“HA–CD47Δ44–50 (from UniProt Q08722 19-323)”: the binding result in experiment [1] and in experiment [2] was “binds” each time.

As to “HA–CD47Δ69–73 (from UniProt Q08722 19-323)”, the binding entry in experiment [1] and in experiment [2] was “binds” in each case.

As for “Flag-tagged integrin αv subunit (pcDNA3.1–hITGAV–Flag) (from UniProt P06756 31-1048)”, in experiment [3], the binding entry is recorded as “binds”.
